From the supplement of paper PMC4604168 (melanoma cell lines)
The list shows a part of the results. Single values are uncertain, as repeats are few or missing.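 Imaging used 1,536-well plates; nuclei positive for cleaved PARP by antibody were divided by total DNA-stained nuclei to yield the apoptosis fraction. Doses for screening kept most cells viable, and cell lines differ markedly in resting and induced cleaved-PARP levels.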

How the values were obtained:
Test in all cases: cleaved PARP positive nuclei fraction relative to DMSO control; melanoma cells; higher = more apoptosis
Details in all cases: library dose: low library concentration; 72 h
[1] = test system: COLO792
[2] = test system: COLO800
[3] = test system: COLO829
[4] = test system: G361
[5] = test system: IPC-298
[6] = test system: IST-MEL1
[7] = test system: LB2518-MEL
[8] = test system: LOXIMVI
[9] = test system: MEL-HO
[10] = test system: MZ2-MEL
[11] = test system: MeWo
[12] = test system: RPMI7951
[13] = test system: RVH-421
[14] = test system: SkMel28
[15] = test system: SkMel2
[16] = test system: SkMel30
[17] = test system: SkMel5
[18] = test system: UACC257
[19] = test system: UACC62

Compound | cleaved PARP positive nuclei fraction [1] [%] | cleaved PARP positive nuclei fraction [2] [%] | cleaved PARP positive nuclei fraction [3] [%] | cleaved PARP positive nuclei fraction [4] [%] | cleaved PARP positive nuclei fraction [5] [%] | cleaved PARP positive nuclei fraction [6] [%] | cleaved PARP positive nuclei fraction [7] [%] | cleaved PARP positive nuclei fraction [8] [%] | cleaved PARP positive nuclei fraction [9] [%] | cleaved PARP positive nuclei fraction [10] [%] | cleaved PARP positive nuclei fraction [11] [%] | cleaved PARP positive nuclei fraction [12] [%] | cleaved PARP positive nuclei fraction [13] [%] | cleaved PARP positive nuclei fraction [14] [%] | cleaved PARP positive nuclei fraction [15] [%] | cleaved PARP positive nuclei fraction [16] [%] | cleaved PARP positive nuclei fraction [17] [%] | cleaved PARP positive nuclei fraction [18] [%] | cleaved PARP positive nuclei fraction [19] [%]
C=CCn1c(=O)c2cnc(Nc3ccc(N4CCN(C)CC4)cc3)nc2n1-c1cccc(C(C)(C)O)n1 + NC(=O)Nc1cc(-c2cccc(F)c2)sc1C(=O)N[C@H]1CCCNC1 [AZD7762] (first compound 0.02 µM, partner dose 0.02 µM) | 84.8 | 121 | 124 | 93.3 | 87.1 | 380 | 103 | 25.1 | 129 | 78.3 | 176 | 180 | 89.8 | 69.3 | 137 | 211 | 46.6 | 103 | 204
C#Cc1cccc(Nc2ncnc3cc(OCCOC)c(OCCOC)cc23)c1 [erlotinib] + COc1cc2c(Oc3ccc4[nH]c(C)cc4c3F)ncnc2cc1OCCCN1CCCC1 [cediranib] (first compound 0.8 µM, partner dose 0.4 µM) | 120 | 79.4 | 97.4 | 125 | 132 | 184 | 18.5 | 33.3 | 144 | 82.2 | 106 | 108 | 33.7 | 190 | 136 | 75.2 | 22 | 63.2 | 66.3
Cc1cc(N2CCOCC2)cc2[nH]c(-c3c(NC[C@@H](O)c4cccc(Cl)c4)cc[nH]c3=O)nc12 + O=C(O)c1ccc(-c2c[nH]c3ncc(-c4ccccc4)cc23)cc1C1CCCC1 [GSK650394] (first compound 0.2 µM, partner dose 0.16 µM) | 173 | 245 | 78.2 | 312 | 106 | 155 | 189 | 101 | 70.8 | 197 | 59.8 | 53.6 | 77.9 | 65 | 121 | 86.6 | 199 | 208 | 247
C[C@]1(c2nc3c(C(N)=O)cccc3[nH]2)CCCN1 [Veliparib] + NC(=O)Nc1cc(-c2cccc(F)c2)sc1C(=O)N[C@H]1CCCNC1 [AZD7762] (first compound 1.4 µM, partner dose 0.02 µM) | 124 | 223 | 98.5 | 124 | 84.8 | 45.5 | 91.6 | 77 | 62.5 | 86.3 | 57.6 | 67.3 | 34.8 | 51.3 | 50.8 | 158 | 81 | 56.6 | 207
Cn1cncc1[C@@](N)(c1ccc(Cl)cc1)c1ccc2c(c1)c(-c1cccc(Cl)c1)cc(=O)n2C [tipifarnib] + COc1cc2c(Oc3ccc4[nH]c(C)cc4c3F)ncnc2cc1OCCCN1CCCC1 [cediranib] (first compound 0.01 µM, partner dose 0.4 µM) | 82.6 | 140 | 79.3 | 75.2 | 91.7 | 136 | 93.4 | 68 | 135 | 64.1 | 200 | 60.8 | 120 | 47.1 | 96.8 | 65.5 | 71.8 | 152 | 72.5
O=C(CCCCCCC(=O)Nc1ccccc1)NO [vorinostat] + CO[C@@H]1[C@H](N(C)C(=O)c2ccccc2)C[C@H]2O[C@]1(C)n1c3ccccc3c3c4c(c5c6ccccc6n2c5c31)C(=O)NC4 [Midostaurin] (first compound 0.08 µM, partner dose 0.08 µM) | 138 | 97.4 | 152 | 130 | 300 | 422 | 56.9 | 102 | 211 | 116 | 90.6 | 192 | 165 | 112 | 159 | 62 | 190 | 72.2 | 57.4
C=CCn1c(=O)c2cnc(Nc3ccc(N4CCN(C)CC4)cc3)nc2n1-c1cccc(C(C)(C)O)n1 + O=C(O)c1ccc(-c2c[nH]c3ncc(-c4ccccc4)cc23)cc1C1CCCC1 [GSK650394] (first compound 0.02 µM, partner dose 0.16 µM) | 104 | 178 | 63.6 | 96.4 | 52.3 | 111 | 215 | 119 | 78.7 | 91.6 | 109 | 73 | 70.2 | 70.6 | 106 | 145 | 34.3 | 51.7 | 170
C=CCn1c(=O)c2cnc(Nc3ccc(N4CCN(C)CC4)cc3)nc2n1-c1cccc(C(C)(C)O)n1 + CC(C)(C)c1cnc(CSc2cnc(NC(=O)C3CCNCC3)s2)o1 [SNS-032] (first compound 0.02 µM, partner dose 0.01 µM) | 78.4 | 156 | 49.9 | 75.3 | 89.5 | 37.9 | 110 | 77.9 | 27.1 | 224 | 22.9 | 73.1 | 53.2 | 41.7 | 121 | 75.8 | 90.9 | 303 | 158
Nc1cccc2c1CN(C1CCC(=O)NC1=O)C2=O (configuration not stated) [lenalidomide] + C[C@@H]1CCN(C(=O)CC#N)C[C@@H]1N(C)c1ncnc2[nH]ccc12 [CP690550] (first compound 1 µM, partner dose 1 µM) | 38.4 | 26.6 | 115 | 116 | 87.3 | 96.1 | 305 | 34 | 31.5 | 86.4 | 66.6 | 50.7 | 37.2 | 360 | 121 | 69.8 | 54.8 | 96.7 | 130
Cc1ccc(NC(=O)c2cccc(N(C)C)c2)cc1NC(=O)c1ccc(O)cc1 + OCCn1cc(-c2cnc3nnn(Cc4ccc5ncccc5c4)c3n2)cn1 [PF04217903] (first compound 2 µM, partner dose 1 µM) | 159 | 54 | 152 | 52.7 | 107 | 34.7 | 90.6 | 44 | 72.2 | 334 | 108 | 59.1 | 87 | 61.6 | 26.3 | 72.7 | 95.7 | 85 | 117
Nc1cccc2c1CN(C1CCC(=O)NC1=O)C2=O (configuration not stated) [lenalidomide] + O=C(CCCCCCC(=O)Nc1ccccc1)NO [vorinostat] (first compound 1 µM, partner dose 0.08 µM) | 105 | 80.7 | 80.8 | 76.7 | 79.6 | 59.5 | 83.7 | 65.6 | 86.6 | 103 | 58.5 | 96.1 | 119 | 118 | 114 | 64.7 | 39 | 174 | 136
C#Cc1cccc(Nc2ncnc3cc(OCCOC)c(OCCOC)cc23)c1 [erlotinib] + O=C(Nc1cccc(Cl)c1)Nc1ncc(CCNc2ncnc3ccsc23)s1 [SNS314] (first compound 0.8 µM, partner dose 0.0008 µM) | 149 | 58.9 | 45.3 | 65.7 | 91.8 | 56.8 | 215 | 27.7 | 109 | 28.5 | 83.3 | 103 | 92.8 | 137 | 48.6 | 63.5 | 56.3 | 121 | 90.2
Clc1ccc(Nc2nnc(Cc3ccncc3)c3ccccc23)cc1 [vatalanib] + COc1cc2c(Oc3ccc4[nH]c(C)cc4c3F)ncnc2cc1OCCCN1CCCC1 [cediranib] (first compound 2 µM, partner dose 0.4 µM) | 118 | 31.5 | 119 | 102 | 49.8 | 97.8 | 291 | 49.2 | 74.9 | 229 | 195 | 51.9 | 77.7 | 41 | 79.6 | 56.4 | 45.6 | 42.1 | 100
Nc1cccc2c1CN(C1CCC(=O)NC1=O)C2=O (configuration not stated) [lenalidomide] + CC(C)(C)c1cnc(CSc2cnc(NC(=O)C3CCNCC3)s2)o1 [SNS-032] (first compound 1 µM, partner dose 0.01 µM) | 128 | 73.8 | 96.9 | 63.6 | 43.4 | 102 | 89.3 | 24.2 | 95.9 | 109 | 90.4 | 100 | 108 | 96.1 | 137 | 55.7 | 41.3 | 33.5 | 111
Cn1nnc2c(C(N)=O)ncn2c1=O [temozolomide] + CC(C)(C)c1cnc(CSc2cnc(NC(=O)C3CCNCC3)s2)o1 [SNS-032] (first compound 2 µM, partner dose 0.01 µM) | 135 | 176 | 105 | 136 | 48 | 157 | 96.1 | 51.9 | 38.1 | 119 | 50.1 | 117 | 86.5 | 230 | 94.6 | 51.2 | 59.5 | 192 | 327
C[C@]1(c2nc3c(C(N)=O)cccc3[nH]2)CCCN1 [Veliparib] + CO[C@@H]1[C@H](N(C)C(=O)c2ccccc2)C[C@H]2O[C@]1(C)n1c3ccccc3c3c4c(c5c6ccccc6n2c5c31)C(=O)NC4 [Midostaurin] (first compound 1.4 µM, partner dose 0.08 µM) | 101 | 204 | 106 | 118 | 45.4 | 126 | 201 | 43.3 | 32.3 | 247 | 63.3 | 211 | 108 | 32.2 | 278 | 61 | 68.5 | 66.1 | 131
Cn1nnc2c(C(N)=O)ncn2c1=O [temozolomide] + Cn1cncc1[C@@](N)(c1ccc(Cl)cc1)c1ccc2c(c1)c(-c1cccc(Cl)c1)cc(=O)n2C [tipifarnib] (first compound 2 µM, partner dose 0.01 µM) | 181 | 94.3 | 43.8 | 115 | 50.9 | 116 | 21.6 | 98.5 | 138 | 76.8 | 99.4 | 56.9 | 296 | 73.6 | 165 | 92.9 | 134 | 289 | 448
COCC[n+]1c2c(n(Cc3cnccn3)c1C)C(=O)c1ccccc1C2=O + O=C(Nc1cccc(Cl)c1)Nc1ncc(CCNc2ncnc3ccsc23)s1 [SNS314] (first compound 0.0004 µM, partner dose 0.0008 µM) | 71 | 74.5 | 115 | 44.4 | 142 | 84.5 | 214 | 154 | 29.9 | 192 | 57.6 | 311 | 71.1 | 121 | 111 | 88.8 | 223 | 160 | 69.4

Part of the list above, in CSV form:
Compound,cleaved PARP positive nuclei fraction [1] [%],cleaved PARP positive nuclei fraction [2] [%],cleaved PARP positive nuclei fraction [3] [%],cleaved PARP positive nuclei fraction [4] [%],cleaved PARP positive nuclei fraction [5] [%],cleaved PARP positive nuclei fraction [6] [%],cleaved PARP positive nuclei fraction [7] [%],cleaved PARP positive nuclei fraction [8] [%],cleaved PARP positive nuclei fraction [9] [%],cleaved PARP positive nuclei fraction [10] [%],cleaved PARP positive nuclei fraction [11] [%],cleaved PARP positive nuclei fraction [12] [%],cleaved PARP positive nuclei fraction [13] [%],cleaved PARP positive nuclei fraction [14] [%],cleaved PARP positive nuclei fraction [15] [%],cleaved PARP positive nuclei fraction [16] [%],cleaved PARP positive nuclei fraction [17] [%],cleaved PARP positive nuclei fraction [18] [%],cleaved PARP positive nuclei fraction [19] [%]
"Nc1cccc2c1CN(C1CCC(=O)NC1=O)C2=O (configuration not stated) [lenalidomide] + C[C@@H]1CCN(C(=O)CC#N)C[C@@H]1N(C)c1ncnc2[nH]ccc12 [CP690550] (first compound 1 µM, partner dose 1 µM)",38.4,26.6,115,116,87.3,96.1,305,34,31.5,86.4,66.6,50.7,37.2,360,121,69.8,54.8,96.7,130
"Cc1ccc(NC(=O)c2cccc(N(C)C)c2)cc1NC(=O)c1ccc(O)cc1 + OCCn1cc(-c2cnc3nnn(Cc4ccc5ncccc5c4)c3n2)cn1 [PF04217903] (first compound 2 µM, partner dose 1 µM)",159,54,152,52.7,107,34.7,90.6,44,72.2,334,108,59.1,87,61.6,26.3,72.7,95.7,85,117
